Reference: PubChem BioAssay AID1259308 (NCATS, 2017)
Screen: 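Knock-downs that increase output of a recombinant reporter protein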 (primary screen). System: human HEK293 embryonic kidney cells stably expressing firefly luciferase (HEK-CMV-Luc2-Hygro). Reagent: single siRNA against human genes, 0.8 pmol siRNA per well. Time to read-out: 72 h. Measured: 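Luciferase light (ONE-Glo) measured on one replicate plate set and viability (CellTiter-Glo) on the other, scaled to a negative control siRNA, with robust z-scores and luciferase per cell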. Scale: total luciferase, z-score and total luciferase, % of control: higher = more reporter protein produced. Active means: 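Active when the median/MAD z-score for overall luciferase is greater than 3; a gene was taken forward for validation with new siRNAs if at least two of its three siRNAs passed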. Calls: active = raised luciferase; inactive = no rise.
In all, the deposit lists about 59,000 reagents; shown is a part drawn at random. About 1,510 of all reagents (2.6%) were called active. 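Calls use total luciferase alone and ignore viability, so some active siRNAs may act by altering cell number.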 Reagents against one gene are numbered here. Not all columns of the deposit are shown.

gene	reagent no.	total luciferase, z-score	total luciferase, % of control	Outcome
ZNF69	1	-1.62	49.7	inactive
ZNF69	2	0.0094	82.1	inactive
ZNF69	3	1.19	106	inactive
MTERF3	1	0.343	88.7	inactive
MTERF3	2	1.62	114	inactive
MTERF3	3	-0.794	66.1	inactive
ARMCX6	1	-0.689	68.2	inactive
ARMCX6	2	-0.826	65.5	inactive
ARMCX6	3	-0.541	71.1	inactive
MTPAP	1	3.3	148	active
MTPAP	2	0.261	87.1	inactive
MTPAP	3	0.768	97.2	inactive
SLX4	1	1.32	108	inactive
SLX4	2	1.17	105	inactive
SLX4	3	-1.24	57.2	inactive
ADAD2	1	1.56	113	inactive
ADAD2	2	0.0694	83.3	inactive
ADAD2	3	3.08	143	active
PLXNA1	1	0.809	98	inactive
PLXNA1	2	2.3	128	inactive
PLXNA1	3	-1.93	43.6	inactive
TSKU	1	-0.772	66.5	inactive
TSKU	2	3.45	150	active
TSKU	3	1.71	116	inactive
SLFN13	1	-1.97	42.8	inactive
SLFN13	2	-0.324	75.4	inactive
SLFN13	3	0.163	85.1	inactive
SAGE2P	1	0.863	99	inactive
SAGE2P	2	2.17	125	inactive
SAGE2P	3	-0.0729	80.4	inactive
NEMP1	1	0.06	83.1	inactive
NEMP1	2	-2.65	29.1	inactive
NEMP1	3	-1.01	61.9	inactive
SYT10	1	1.87	119	inactive
SYT10	2	-0.342	75.1	inactive
SYT10	3	0.217	86.2	inactive
SYK	1	-0.763	66.7	inactive
SYK	2	0.0233	82.4	inactive
SYK	3	-1.35	55	inactive
LINC00326	1	0.405	89.9	inactive
LINC00326	2	-0.115	79.6	inactive
LINC00326	3	-0.163	78.6	inactive
ATP5F1E	1	-0.885	64.3	inactive
ATP5F1E	2	-0.318	75.6	inactive
ATP5F1E	3	0.575	93.3	inactive
BPHL	1	-1.38	54.4	inactive
BPHL	2	1.16	105	inactive
BPHL	3	1.78	117	inactive
HES6	1	-1.02	61.6	inactive
HES6	2	0.366	89.2	inactive
HES6	3	-0.189	78.1	inactive
NCBP1	1	0.697	95.8	inactive
NCBP1	2	0.654	94.9	inactive
NCBP1	3	-0.554	70.9	inactive
TSPYL6	1	0.965	101	inactive
TSPYL6	2	-0.594	70.1	inactive
TSPYL6	3	1.62	114	inactive
RAP2C	1	1.72	116	inactive
RAP2C	2	0.383	89.5	inactive
RAP2C	3	-0.477	72.4	inactive
LHFPL2	1	2.46	131	inactive
LHFPL2	2	1.26	107	inactive
LHFPL2	3	-0.331	75.3	inactive
MT1X	1	-0.571	70.5	inactive
MT1X	2	2.01	122	inactive
MT1X	3	0.666	95.1	inactive
EEF1E1	1	-0.975	62.5	inactive
EEF1E1	2	0.798	97.8	inactive
EEF1E1	3	-0.518	71.6	inactive
TDRD3	1	0.711	96	inactive
TDRD3	2	-1.2	58.1	inactive
TDRD3	3	0.132	84.5	inactive
NCF4	1	-0.958	62.8	inactive
NCF4	2	0.454	90.9	inactive
NCF4	3	-0.138	79.1	inactive

Quoted from the listing (4 entries):
gene	reagent no.	total luciferase, z-score	total luciferase, % of control	Outcome
ATP5F1E	3	0.575	93.3	inactive
BPHL	1	-1.38	54.4	inactive
BPHL	2	1.16	105	inactive
BPHL	3	1.78	117	inactive
